Article PMC9894248, “Alanine synthesized by alanine dehydrogenase enables ammonium-tolerant nitrogen fixation in Paenibacillus sabinae T27”

Legend:
[1] = molecular target: T1, GlnR (Paenibacillus sabinae T27) (UniProt X4ZZY3); assay: EMSA; conditions: GlnR 2-256 nM without FBI-GS, lower affinity than with FBI-GS; EMSA: 20 ul, 1 ug poly[d(A-T)], 0.3 nM probe, 30 min, 25 C; binding buffer (given for protein dialysis) 20 mM HEPES pH 7.6, 1 mM EDTA, 10 mM (NH4)2SO4, 1 mM DTT; recombinant protein; protein details: N-His6; label: 3' DIG (Methods), biotin (Fig. S6 legend)
T1 sequence (looked up, limits assumed): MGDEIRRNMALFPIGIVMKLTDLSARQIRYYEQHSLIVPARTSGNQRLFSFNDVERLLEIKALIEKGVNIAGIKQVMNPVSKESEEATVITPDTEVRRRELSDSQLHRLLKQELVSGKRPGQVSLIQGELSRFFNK

[2] = molecular target: T1, GlnR (Paenibacillus sabinae T27); assay: SPR; conditions: GlnR alone, 0-500 nM, binds with lower affinity than site I; SPR: SA chip, 250 RU DNA, GlnR 0-500 nM with or without 25 nM GS; recombinant protein; protein details: N-His6; label: 5' biotin on capture linker S3

Row | Sequence | binding result [1] | binding result [2]
1 | TTTTCAAGAAAGGTTGGAGTCAGGTTAACTGACACGTCGGATG (double strand) [nif promoter GlnR site II EMSA probe (nifR2)] | binds | –
2 | AAGGTTGGAGTCAGGTTAACTGACACGTCGGATGTAGGT / ACCTACATCCGACGTGTCAGTTAACCTGACTCCAACCTTCCTACCCTACGTCCTCCTGC / GCAGGAGGACGTAGGGTAGG [SPR probe GlnR site II (TS2)] | – | binds more weakly

Construct, isoform or probe ends are uncertain for at least one entry. For some assays here: Weaker means in comparison with the reference protein, sequence or condition of that experiment. Protein sequences can lack the tags named with them.
